Test results published in PMC8885657, “HPV infection alters vaginal microbiome through down-regulating host mucosal innate peptides used by Lactobacilli as amino acid sources” (Nature Communications, 2022).
No constants are given. Whether binding was seen depends on the method and setting. Binding seen in cells or lysates may run through a third protein. Some results given as binding are weak or reduced against the parent protein; the word gives no strength. For some of these results: Sequences can lack the tags named with a protein.

Sequences of proteins named here, by UniProt entry; tags and fusion partners are left off. A change or cut given only in a name is not applied to a line headed by its entry. A line that says so, or that is headed by a name, gives the form on record, which may keep a tag or linker. Residues count along the entry.
UniProt P06430: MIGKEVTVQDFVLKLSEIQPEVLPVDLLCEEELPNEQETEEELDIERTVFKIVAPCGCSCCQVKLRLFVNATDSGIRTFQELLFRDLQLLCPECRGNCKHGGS
UniProt P03129: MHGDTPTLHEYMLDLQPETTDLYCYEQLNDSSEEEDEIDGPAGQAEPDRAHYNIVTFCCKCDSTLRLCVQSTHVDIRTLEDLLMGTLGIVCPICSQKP
HPV16 E7 C-terminal domain (37-98 amino acids) fused to Gluc2: residues 37-98 of P03129
UniProt P06788: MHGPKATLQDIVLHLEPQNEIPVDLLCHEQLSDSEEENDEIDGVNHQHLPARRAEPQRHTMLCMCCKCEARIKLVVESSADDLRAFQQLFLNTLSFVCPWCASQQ
UniProt Q9Y6K9: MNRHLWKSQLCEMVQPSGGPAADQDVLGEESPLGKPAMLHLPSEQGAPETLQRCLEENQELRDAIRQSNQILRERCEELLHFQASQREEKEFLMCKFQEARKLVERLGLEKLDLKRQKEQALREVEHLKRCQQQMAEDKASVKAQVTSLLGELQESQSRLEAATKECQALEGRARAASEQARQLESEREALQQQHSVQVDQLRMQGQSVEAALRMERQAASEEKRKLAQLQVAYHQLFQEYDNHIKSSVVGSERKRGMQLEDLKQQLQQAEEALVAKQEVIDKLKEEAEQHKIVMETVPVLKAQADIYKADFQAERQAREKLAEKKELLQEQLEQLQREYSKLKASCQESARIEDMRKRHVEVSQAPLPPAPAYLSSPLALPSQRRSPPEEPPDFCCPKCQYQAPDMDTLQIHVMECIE
UniProt Q9Y297: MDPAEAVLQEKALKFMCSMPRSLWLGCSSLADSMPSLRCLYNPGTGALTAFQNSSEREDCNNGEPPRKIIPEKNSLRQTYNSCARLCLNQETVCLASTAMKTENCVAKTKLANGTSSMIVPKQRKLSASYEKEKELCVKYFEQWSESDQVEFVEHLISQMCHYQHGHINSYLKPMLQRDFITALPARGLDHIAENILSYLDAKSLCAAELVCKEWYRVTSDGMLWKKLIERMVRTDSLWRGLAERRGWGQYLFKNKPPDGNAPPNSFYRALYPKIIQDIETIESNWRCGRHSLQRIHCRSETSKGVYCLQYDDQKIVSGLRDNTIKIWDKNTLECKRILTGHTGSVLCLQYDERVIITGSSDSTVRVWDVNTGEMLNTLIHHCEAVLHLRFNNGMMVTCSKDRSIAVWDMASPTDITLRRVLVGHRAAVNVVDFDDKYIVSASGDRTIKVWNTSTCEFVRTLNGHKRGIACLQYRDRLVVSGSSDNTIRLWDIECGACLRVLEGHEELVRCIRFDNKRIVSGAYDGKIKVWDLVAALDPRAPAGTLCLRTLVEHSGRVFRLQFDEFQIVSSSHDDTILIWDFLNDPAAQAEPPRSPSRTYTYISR
UniProt P48729: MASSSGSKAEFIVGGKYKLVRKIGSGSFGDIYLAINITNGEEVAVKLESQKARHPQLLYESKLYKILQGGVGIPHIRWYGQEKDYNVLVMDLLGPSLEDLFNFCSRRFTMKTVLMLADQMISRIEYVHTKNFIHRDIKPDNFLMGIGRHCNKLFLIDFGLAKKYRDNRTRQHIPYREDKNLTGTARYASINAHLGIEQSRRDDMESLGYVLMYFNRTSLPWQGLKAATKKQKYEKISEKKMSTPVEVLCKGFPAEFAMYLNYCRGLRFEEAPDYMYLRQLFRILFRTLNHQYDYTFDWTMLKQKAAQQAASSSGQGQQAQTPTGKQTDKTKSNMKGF
UniProt Q9HCP0: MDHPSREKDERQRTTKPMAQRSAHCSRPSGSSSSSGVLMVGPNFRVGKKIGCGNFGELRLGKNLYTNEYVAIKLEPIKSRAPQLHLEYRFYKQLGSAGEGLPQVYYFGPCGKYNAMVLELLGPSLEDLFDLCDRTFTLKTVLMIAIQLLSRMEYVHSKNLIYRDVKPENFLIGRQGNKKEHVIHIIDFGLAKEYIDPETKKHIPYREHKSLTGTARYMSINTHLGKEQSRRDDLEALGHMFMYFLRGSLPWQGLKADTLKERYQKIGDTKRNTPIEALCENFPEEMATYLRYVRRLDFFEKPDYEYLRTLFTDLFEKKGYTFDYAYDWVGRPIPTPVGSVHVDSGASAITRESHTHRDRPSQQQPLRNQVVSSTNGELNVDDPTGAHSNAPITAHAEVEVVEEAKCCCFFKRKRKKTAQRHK
UniProt P78368: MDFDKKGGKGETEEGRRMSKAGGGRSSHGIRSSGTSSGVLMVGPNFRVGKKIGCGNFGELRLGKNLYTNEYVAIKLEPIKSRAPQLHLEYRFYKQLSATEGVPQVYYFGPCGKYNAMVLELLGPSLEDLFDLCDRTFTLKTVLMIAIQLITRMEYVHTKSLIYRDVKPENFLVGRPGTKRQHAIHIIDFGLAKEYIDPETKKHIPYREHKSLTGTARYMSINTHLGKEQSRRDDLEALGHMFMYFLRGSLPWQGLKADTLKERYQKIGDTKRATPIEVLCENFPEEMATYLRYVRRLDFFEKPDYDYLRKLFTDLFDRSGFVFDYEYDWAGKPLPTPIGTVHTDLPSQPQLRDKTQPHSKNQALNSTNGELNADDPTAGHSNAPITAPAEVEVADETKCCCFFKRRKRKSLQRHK
UniProt Q9Y6M4: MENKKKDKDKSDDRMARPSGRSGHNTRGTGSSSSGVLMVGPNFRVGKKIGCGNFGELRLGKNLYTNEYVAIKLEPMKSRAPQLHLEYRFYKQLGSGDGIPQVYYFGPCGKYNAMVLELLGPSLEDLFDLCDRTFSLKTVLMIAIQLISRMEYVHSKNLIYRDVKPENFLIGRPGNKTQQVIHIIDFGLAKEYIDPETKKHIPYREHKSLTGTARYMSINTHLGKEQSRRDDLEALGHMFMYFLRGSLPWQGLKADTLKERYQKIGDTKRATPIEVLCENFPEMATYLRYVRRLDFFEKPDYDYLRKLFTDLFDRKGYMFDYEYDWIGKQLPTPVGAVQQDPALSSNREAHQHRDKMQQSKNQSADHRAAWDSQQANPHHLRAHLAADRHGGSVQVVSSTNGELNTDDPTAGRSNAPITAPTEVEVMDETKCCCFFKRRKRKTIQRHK
UniProt P49841: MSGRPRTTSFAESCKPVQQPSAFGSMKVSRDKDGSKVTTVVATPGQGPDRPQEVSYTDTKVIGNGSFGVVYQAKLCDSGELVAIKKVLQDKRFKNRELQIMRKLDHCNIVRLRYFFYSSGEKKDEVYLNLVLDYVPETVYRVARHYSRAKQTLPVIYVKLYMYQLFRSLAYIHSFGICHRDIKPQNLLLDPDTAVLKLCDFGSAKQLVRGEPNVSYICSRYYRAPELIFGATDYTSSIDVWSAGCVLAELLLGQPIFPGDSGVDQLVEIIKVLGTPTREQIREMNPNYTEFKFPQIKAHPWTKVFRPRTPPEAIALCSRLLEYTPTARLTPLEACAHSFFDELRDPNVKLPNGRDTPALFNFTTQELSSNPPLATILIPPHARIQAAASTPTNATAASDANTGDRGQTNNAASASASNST

Tests used:
[1] = target: HPV8 E7 fused to Gluc2 (pSPICA-N2-E7) (HPV8) (UniProt P06430); experiment: split reporter
[2] = target: T1, HPV33 E7 fused to Gluc2 (pSPICA-N2-E7) (HPV33) (UniProt P06429); experiment: split reporter
T1 sequence: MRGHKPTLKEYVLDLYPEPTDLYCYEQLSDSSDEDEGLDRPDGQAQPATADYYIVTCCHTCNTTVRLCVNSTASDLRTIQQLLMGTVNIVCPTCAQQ

[3] = target: T2, HPV39 E7 fused to Gluc2 (pSPICA-N2-E7) (HPV39) (UniProt P24837); experiment: split reporter
T2 sequence: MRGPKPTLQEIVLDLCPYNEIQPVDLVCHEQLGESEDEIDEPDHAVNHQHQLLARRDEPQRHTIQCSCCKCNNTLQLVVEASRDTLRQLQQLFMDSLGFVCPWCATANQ

[4] = target: HPV16 E7 oncoprotein fused to the Gluc2 fragment of Gaussia princeps luciferase (pSPICA-N2-E7) (HPV16) (UniProt P03129); experiment: split reporter
[5] = target: HPV18 E7 fused to Gluc2 (pSPICA-N2-E7) (HPV18) (UniProt P06788); experiment: split reporter
[6] = target: NEMO (IKK regulatory subunit) fused to the Gluc1 fragment of G. princeps luciferase (pSPICA-N1) (human) (UniProt Q9Y6K9); experiment: co-IP
[7] = target: ubiquitin E3 ligase β-TrCP fused to Gluc1 (pSPICA-N1) (human) (UniProt Q9Y297); experiment: co-IP
[8] = target: Casein Kinase 1 alpha (CK1α1) fused to Gluc1 (pSPICA-N1) (human) (UniProt P48729); experiment: co-IP
[9] = target: FLAG-HPV8 E7 (pCineo-3xFLAG) (HPV8) (UniProt P06430); experiment: co-IP
[10] = target: FLAG-HPV18 E7 (pCineo-3xFLAG) (HPV18) (UniProt P06788); experiment: co-IP
[11] = target: FLAG-HPV16 E7 (pCineo-3xFLAG) (HPV16) (UniProt P03129); experiment: co-IP
[12] = target: HPV16 E7 C-terminal domain (37-98 amino acids) fused to Gluc2 (HPV16) (UniProt P03129); experiment: split reporter

In the case of “Casein Kinase 1 gamma 1 (CK1γ1) fused to Gluc1 (pSPICA-N1) (from UniProt Q9HCP0 1-422) (enzyme)”, the binding [1] is reported as “binds”, the binding [2] is reported as “binds” and the binding [3] is reported as “binds”. For the same substance, the binding [4] was “binds” and the binding [5] was “binds”.
In the case of “Casein Kinase 1 gamma 2 (CK1γ2) fused to Gluc1 (pSPICA-N1) (from UniProt P78368 1-415) (enzyme)”, the binding [1] is reported as “binds”, the binding [2] is reported as “binds” and the binding [3] is reported as “binds”. The binding [4] was “binds” and the binding [5] was “binds”.
With “Casein Kinase 1 gamma 3 (CK1γ3) fused to Gluc1 (pSPICA-N1) (from UniProt Q9Y6M4 1-447) (enzyme)” the binding [1] was “binds”, the binding [2] was “binds” and the binding [3] was “binds”. The binding [4] was “binds” and the binding [5] was “binds”.
For “FLAG-HPV16 E7 (pCineo-3xFLAG) (from UniProt P03129 1-98)”, the binding [6] was “binds”, the binding [7] was “binds” and the binding [8] was “binds”.
“GSK3β fused to Gluc1 (pSPICA-N1) (from UniProt P49841 1-420) (enzyme)” was tested, and the binding [4] was “no binding”.
In the case of “NEMO (IKK regulatory subunit) fused to the Gluc1 fragment of G. princeps luciferase (pSPICA-N1) (from UniProt Q9Y6K9 1-419)”, the binding [9] is reported as “binds”, the binding [10] is reported as “binds” and the binding [11] is reported as “binds”. For the same substance, the binding [1] was “binds”, the binding [2] was “binds” and the binding [3] was “binds”. For the same substance, the binding [4] was “binds”, the binding [12] was “binds” and the binding [5] was “binds”.
“ubiquitin E3 ligase β-TrCP fused to Gluc1 (pSPICA-N1) (from UniProt Q9Y297 1-605)” was tested, and the binding [11] was “binds”, the binding [1] was “binds” and the binding [2] was “binds”. The binding [3] was “binds”, the binding [4] was “binds” and the binding [5] was “binds”.
